Test results taken from the supplement of paper PMC9226226.
Values joined by “and” are separate entries in the source; they are usually repeats but may differ in a detail not shown here. Identical values can stand only once. ± gives the standard deviation of the averaged measurements. Some of the results follow. Several reference drugs read as weak here; read low effects with care.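 The cells are human mesenchymal stem cells that lack the Werner syndrome gene and age prematurely. Growth was tracked by automated live-cell imaging in three biological repeats, and the twenty drugs that most raised growth over vehicle were taken forward, with no fixed cutoff stated.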

Test system: Werner syndrome hMSCs (WRN-/-)
Assay: relative cell density (fold change vs vehicle control); higher = more proliferation (geroprotective)
Settings: concentration (umol/L): 1, 6 days

## Oc1cc(Cl)ccc1Oc1ccc(Cl)cc1Cl
vehicle: DMSO
  relative cell density: 1.13

## C[C@]12CC[C@H]3[C@@H](CC[C@@]45O[C@@H]4C(O)=C(C#N)C[C@]35C)[C@@H]1CC[C@@H]2O
vehicle: DMSO
  relative cell density: 1.39

## COC(=O)C1=CCCN(C)C1
vehicle: DMSO
  relative cell density: 0.957

## CNCC(=O)c1ccc(O)c(O)c1
vehicle: DMSO
  relative cell density: 0.18

## CC(C)N(CCNC(=O)CN1CCCC1=O)C(C)C
vehicle: DMSO
  relative cell density: 0.986

## C[N+]1(C)[C@@H]2C[C@@H](OC(=O)[C@H](CO)c3ccccc3)C[C@H]1[C@@H]1O[C@@H]12
vehicle: DMSO
  relative cell density: 1.27

## CCN(C)C(=O)Oc1cccc([C@H](C)N(C)C)c1
vehicle: DMSO
  relative cell density: 1 and 1.09

## CCC1(c2ccc(N)cc2)CCC(=O)NC1=O (configuration not stated)
vehicle: DMSO
  relative cell density: 1.12

## C[C@@H]1O[C@@H](O[C@H]2C[C@@H](O)[C@]3(CO)[C@H]4[C@H](O)C[C@]5(C)[C@@H](C6=CC(=O)OC6)CC[C@]5(O)[C@@H]4CC[C@]3(O)C2)[C@H](O)[C@H](O)[C@H]1O
vehicle: DMSO
  relative cell density: 0.0879

## C1CO1.C=O.CC(C)(C)CC(C)(C)c1ccc(O)cc1
vehicle: DMSO
  relative cell density: 1.06

## NC(=O)CN1CCCC1=O
vehicle: DMSO
  relative cell density: 1.23

## O=P1(NCCCl)OCCCN1CCCl (configuration not stated)
vehicle: DMSO
  relative cell density: 0.989

## O=C(O[C@H]1C[N+]2(CCCOc3ccccc3)CCC1CC2)C(O)(c1cccs1)c1cccs1
vehicle: DMSO
  relative cell density: 1.06

## COc1cc2c(cc1OC)C1CC(=O)C(CC(C)C)CN1CC2 (configuration not stated)
vehicle: DMSO
  relative cell density: 1.04

## Cc1cccc(C)c1NC1=NCCCS1
vehicle: DMSO
  relative cell density: 1.17

## CN1C(=O)COc2c(C(=O)NC3CN4CCC3CC4)cc(Cl)cc21 (configuration not stated)
vehicle: Water
  relative cell density: 1.04

## C[C@@H]1CC[C@H]2[C@@H](C)C(=O)O[C@@H]3O[C@@]4(C)CC[C@@H]1[C@]32OO4
vehicle: DMSO
  relative cell density: 0.786

## CCC1(c2cccc(O)c2)CCCCN(C)C1 (configuration not stated)
vehicle: DMSO
  relative cell density: 0.89

## CCC(COC(=O)c1cc(OC)c(OC)c(OC)c1)(c1ccccc1)N(C)C (configuration not stated)
vehicle: DMSO
  relative cell density: 1.2

## NCCc1c[nH]c2ccc(O)cc12
vehicle: DMSO
  relative cell density: 1.21

## Cc1cccc([C@H](C)c2c[nH]cn2)c1C
vehicle: DMSO
  relative cell density: 1.34 and 1.08

## C#C[C@]1(O)C=C[C@H]2[C@@H]3CCC4=CC(=O)CC[C@@H]4[C@H]3CC[C@@]21CC
vehicle: DMSO
  relative cell density: 0.903

## Cc1cc(O)ccc1Cl
vehicle: DMSO
  relative cell density: 1.09

## CC[C@H]1CN2CC[C@H]1C[C@@H]2[C@@H](O)c1ccnc2ccc(OC)cc12
vehicle: DMSO
  relative cell density: 1.36

## COc1ccc(CN2CCNCC2)c(OC)c1OC
vehicle: DMSO
  relative cell density: 0.779

## CCCCCCC(=O)O[C@H]1CC[C@H]2[C@@H]3CCC4=CC(=O)CC[C@]4(C)[C@H]3CC[C@]12C
vehicle: DMSO
  relative cell density: 1.28

## N[C@@H](Cc1ccc(N(CCCl)CCCl)cc1)C(=O)O
vehicle: DMSO
  relative cell density: 0.678

## O=[N+]([O-])O[C@@H]1CO[C@H]2[C@@H]1OC[C@@H]2O
vehicle: DMSO
  relative cell density: 1.15

## N=C(N)NN
vehicle: DMSO
  relative cell density: 1.18

## CN1[C@@H]2CC[C@H]1C[C@@H](OC(=O)[C@H](CO)c1ccccc1)C2
vehicle: DMSO
  relative cell density: 1.08

## Nc1nc(N)nc(NC2CC2)n1
vehicle: DMSO
  relative cell density: 0.906

## Cc1cccc(C(C)c2c[nH]cn2)c1C (configuration not stated)
vehicle: DMSO
  relative cell density: 1.24

## COc1ccc2c(c1)[C@]13CCCC[C@@H]1[C@H](C2)N(C)CC3
vehicle: DMSO
  relative cell density: 1.32

## C/C(=C\c1csc(C)n1)[C@@H]1C[C@@H]2O[C@]2(C)CCC[C@H](C)[C@H](O)[C@@H](C)C(=O)C(C)(C)[C@@H](O)CC(=O)O1
vehicle: DMSO
  relative cell density: 0.124

## Cc1ccccc1-n1c(CF)nc2ccc(N)cc2c1=O
vehicle: DMSO
  relative cell density: 1.14

## C=CC[C@]1(O)CC[C@H]2[C@@H]3CCC4=CC(=O)CCC4=C3C=C[C@@]21C
vehicle: DMSO
  relative cell density: 0.86

## O=c1[nH]c2ccccc2n1CCCN1CCC(n2c(=O)[nH]c3cc(Cl)ccc32)CC1
vehicle: DMSO
  relative cell density: 0.998

## CCC[C@@H]1CC(=O)N([C@@H](CC)C(N)=O)C1
vehicle: DMSO
  relative cell density: 1.18

## Nc1ccncc1
vehicle: DMSO
  relative cell density: 1.09

## COc1ccc(C(=O)N2CCCC2=O)cc1
vehicle: DMSO
  relative cell density: 0.867

## O=C(O[C@H]1C[C@H]2CC[C@@H](C1)[N+]21CCCC1)C(O)(c1ccccc1)c1ccccc1
vehicle: DMSO
  relative cell density: 0.99

## O=C(O)CCCc1ccc(N(CCCl)CCCl)cc1
vehicle: DMSO
  relative cell density: 1.02

## CC[C@@H](C(N)=O)N1CCCC1=O
vehicle: DMSO
  relative cell density: 0.966

## NC(=O)CN1CC(O)CC1=O (configuration not stated)
vehicle: DMSO
  relative cell density: 1.42

## C[CH2][Hg][S]c1ccccc1C(=O)[O-].[Na+]
vehicle: DMSO
  relative cell density: 0.227

## CN1c2ccccc2C(NCCCCCCC(=O)O)c2ccc(Cl)cc2S1(=O)=O (configuration not stated)
vehicle: DMSO
  relative cell density: 1.28

## CN(C)[C@@H]1C(=O)C(C(N)=O)=C(O)[C@@]2(O)C(=O)C3=C(O)c4c(O)ccc(Cl)c4[C@@](C)(O)[C@H]3C[C@@H]12
vehicle: Water
  relative cell density: 1.09

## C[N+](C)(C)CCCCCCCCCC[N+](C)(C)C
vehicle: DMSO
  relative cell density: 1.1

## CCCN1C[C@H](CSC)C[C@@H]2c3cccc4[nH]cc(c34)C[C@H]21
vehicle: DMSO
  relative cell density: 1.23

## OC1CC2CCC(C1)N2 (configuration not stated)
vehicle: DMSO
  relative cell density: 0.867

## COc1cc2c(c(OC)c1OC)-c1ccc(OC)c(=O)cc1[C@@H](NC(C)=O)CC2
vehicle: DMSO
  relative cell density: 0.459

## CC(C)c1cccc(C(C)C)c1O
vehicle: DMSO
  relative cell density: 1.04

## CC(C)OC(=O)[C@H](C)N[P@](=O)(CO[C@H](C)Cn1cnc2c(N)ncnc21)Oc1ccccc1
vehicle: DMSO
  relative cell density: 0.744

## NCC1(CC(=O)O)CCCCC1
vehicle: Water
  relative cell density: 0.954 and 1.16

## CCOC(=O)c1cncn1[C@H](C)c1ccccc1
vehicle: DMSO
  relative cell density: 1.17

## CC(O)(CS(=O)(=O)c1ccc(F)cc1)C(=O)Nc1ccc(C#N)c(C(F)(F)F)c1 (configuration not stated)
vehicle: DMSO
  relative cell density: 1.72

## Cc1cc(C(C#N)c2ccc(Cl)cc2)c(Cl)cc1NC(=O)c1cc(I)cc(I)c1O (configuration not stated)
vehicle: DMSO
  relative cell density: 0.759

## O=C(O)c1nn(Cc2ccc(Cl)cc2Cl)c2ccccc12
vehicle: DMSO
  relative cell density: 1.23

## O=C1CC[C@@]2(O)[C@H]3Cc4ccc(O)c5c4[C@@]2(CCN3CC2CC2)[C@H]1O5
vehicle: DMSO
  relative cell density: 1.07

## CN[C@@H]1[C@@H](O)[C@@H](O[C@@H]2[C@@H](O)[C@H](O[C@H]3O[C@H](CN)CC[C@H]3N)[C@@H](N)C[C@H]2N)OC[C@]1(C)O.CN[C@@H]1[C@@H](O)[C@@H](O[C@@H]2[C@@H](O)[C@H](O[C@H]3O[C@H]([C@@H](C)N)CC[C@H]3N)[C@@H](N)C[C@H]2N)OC[C@]1(C)O.CN[C@@H]1[C@@H](O)[C@@H](O[C@@H]2[C@@H](O)[C@H](O[C@H]3O[C@H]([C@@H](C)NC)CC[C@H]3N)[C@@H](N)C[C@H]2N)OC[C@]1(C)O
vehicle: Water
  relative cell density: 0.882

## Cn1c(CCCC(=O)O)nc2cc(N(CCCl)CCCl)ccc21
vehicle: DMSO
  relative cell density: 0.885

## CN(C)[C@@H]1C(=O)C(C(N)=O)=C(O)[C@@]2(O)C(=O)C3=C(O)c4c(O)cccc4[C@@](C)(O)[C@H]3C[C@@H]12
vehicle: DMSO
  relative cell density: 1.08

## CC(NC(C)(C)C)C(=O)c1cccc(Cl)c1 (configuration not stated)
vehicle: DMSO
  relative cell density: 1.14

## NC[C@H](CC(=O)O)c1ccc(Cl)cc1
vehicle: Water
  relative cell density: 1.07 ± 0.14

## O=[N+]([O-])C(Br)(CO)CO
vehicle: DMSO
  relative cell density: 1.23

## CN1[C@@H]2C[C@@H](OC(=O)[C@H](CO)c3ccccc3)C[C@H]1[C@@H]1O[C@@H]12
vehicle: DMSO
  relative cell density: 1.11

## N[C@@H]1C[C@H]1c1ccccc1
vehicle: DMSO
  relative cell density: 1.26

## CNC1CC(N)C(O)C(OC2OC(CO)C(O)C3OC4(OC(C(N)CO)C(O)C(O)C4O)OC23)C1O (configuration not stated)
vehicle: Water
  relative cell density: 0.974 ± 0.17

## Cn1cc(C2=C(c3cn(C4CCN(Cc5ccccn5)CC4)c4ccccc34)C(=O)NC2=O)c2ccccc21
vehicle: DMSO
  relative cell density: 1.31

## NC(=O)c1cc(N2CC2)c([N+](=O)[O-])cc1[N+](=O)[O-]
vehicle: DMSO
  relative cell density: 0.982

## Cc1cccc(C)c1NC(=O)CN1CCCC1=O
vehicle: DMSO
  relative cell density: 1.13

## CCCC[N+]1(C)[C@@H]2C[C@@H](OC(=O)[C@H](CO)c3ccccc3)C[C@H]1[C@@H]1O[C@@H]12 (some centres not stated)
vehicle: DMSO
  relative cell density: 1.25

## CC(C)C(Br)C(=O)NC(N)=O (configuration not stated)
vehicle: DMSO
  relative cell density: 1.03

## Cc1cccc(Cc2c[nH]cn2)c1C
vehicle: DMSO
  relative cell density: 1.12

## NCC(O)c1ccc(O)cc1 (configuration not stated)
vehicle: DMSO
  relative cell density: 0.811

## CC(=O)O[C@H]1C[C@@H]2CC[C@@H]3[C@H](CC[C@@]4(C)[C@H]3C[C@H]([N+]3(C)CCCCC3)[C@@H]4OC(C)=O)[C@@]2(C)C[C@@H]1[N+]1(C)CCCCC1
vehicle: DMSO
  relative cell density: 0.97

## CN1[C@@H]2CC[C@H]1C[C@@H](OC(=O)C(CO)c1ccccc1)C2 (some centres not stated)
vehicle: DMSO
  relative cell density: 0.993

## C[C@]12CCC(=O)C(O)=C1CC[C@@H]1[C@@H]2CC[C@]2(C)C(=O)CC[C@@H]12
vehicle: DMSO
  relative cell density: 1.19

## CN(C)C(=O)Oc1cccc([N+](C)(C)C)c1
vehicle: Water
  relative cell density: 1.01

## CCN(CC)CCOC(=O)C(O)(c1ccccc1)c1ccccc1
vehicle: DMSO
  relative cell density: 0.919

## COc1ccc(C(CN(C)C)C2(O)CCCCC2)cc1 (configuration not stated)
vehicle: DMSO
  relative cell density: 1.26

## CC[N+](C)(CC)CCOC(=O)C(O)(c1ccccc1)c1ccccc1
vehicle: DMSO
  relative cell density: 1.09

## CC(C)NCC(O)c1ccccc1Cl (configuration not stated)
vehicle: DMSO
  relative cell density: 1.22

## CN(C)C(=O)Oc1ccc[n+](C)c1
vehicle: DMSO
  relative cell density: 0.945

## NCCCNCCSP(=O)(O)O
vehicle: Water
  relative cell density: 1.33

## C=CN1CCCC1=O.II
vehicle: DMSO
  relative cell density: 1.18

## Cn1c(COP(=O)(NCCBr)NCCBr)cnc1[N+](=O)[O-]
vehicle: DMSO
  relative cell density: 0.751

## CCC1(C)CC(=O)NC(=O)C1
vehicle: DMSO
  relative cell density: 0.967

## OC(c1ccccc1)(c1ccccc1)C1CCNCC1
vehicle: DMSO
  relative cell density: 0.962

## CNC(C)Cc1ccccc1OC (configuration not stated)
vehicle: DMSO
  relative cell density: 1.06

## C=C1C[C@@H]2[C@H](CC[C@]3(C)C(=O)CC[C@@H]23)[C@@]2(C)C=CC(=O)C=C12
vehicle: DMSO
  relative cell density: 1.07

## O.O.O.O=C([O-])C1[O][Sb]2[O]C(=O)C([O]2)C(C(=O)[O-])[O][Sb]2[O]C(=O)C1[O]2.[K+].[K+] (configuration not stated)
vehicle: Water
  relative cell density: 0.165

## CCCCCCCCCCCCCCCC[n+]1ccccc1
vehicle: DMSO
  relative cell density: 1.18

## CC(=O)NC1CCSC1=O (configuration not stated)
vehicle: DMSO
  relative cell density: 1.28

## CN1C(=O)CCS(=O)(=O)C1c1ccc(Cl)cc1 (configuration not stated)
vehicle: DMSO
  relative cell density: 1.43

## CN(C)[C@@H]1C(=O)C(C(N)=O)=C(O)[C@@]2(O)C(=O)C3=C(O)c4c(O)cccc4[C@@](C)(O)[C@H]3[C@H](O)[C@@H]12
vehicle: DMSO
  relative cell density: 0.976 and 0.972

## O=P1(N(CCCl)CCCl)NCCCO1 (configuration not stated)
vehicle: DMSO
  relative cell density: 1.24
